This note sets out measurements from article PMC4049815.

No constants are given. Whether binding was seen depends on the method and setting. In cells and extracts the contact can be indirect. Where a sequence is shown, tags or fusion partners need not be part of it.

The target in the assay is N-terminally truncated p53 (p53 ΔN) (mouse). Kind of assay: co-IP; HEK293A cells co-transfected with untagged necdin (FL or ΔH4/5) and Myc-tagged PIAS1 forms or p53; lysates precipitated and blotted with antibodies to Myc and necdin (Fig. 7B: IP anti-necdin, blot anti-Myc).

B1: necdin (full-length, untagged) (protein, UniProt P25233 1-325)
chain: MSEQSKDLSDPNFAAEVPDCEMQDSDAVPVGIPPPASLAANLAGPPCAPEGPMAAQQASPPPEERIEDVDPKILQQAAEEGRAHQPQSPARPIPAPPAPAQLVQKAHELMWYVLVKDQKRMVLWFPDMVKEVMGSYKKWCRSILRRTSVILARVFGLHLRLTNLHTMEFALVKALSPEELDRVALNNRMPMTGLLLMILSLIYVKGRGAREGAVWNVLRILGLRPWKKHSTFGDVRKIITEEFVQQNYLKYQRVPHIEPPEYEFFWGSRANREITKMQIMEFLARVFKKDPQAWPSRYREALEQARALREANLAAQAPRSSVSED
Turning to B1, the binding entry is “no binding”.
